According to the supplement of paper PMC10338343:
± gives the standard deviation. Only a part is listed here, and it is no random draw. Many of these values have a large error.

Legend:
[1] = test system: MILI (PIWIL2) piRISC loaded with piRNA #1 (26 nt); experiment: pre-steady-state target cleavage rate (min^-1); higher = faster piRNA-guided slicing of the target; settings: guide: piRNA #1 5'p-UGAGGUAGUAGGUUGUAUAGUAUCCA; auxiliary factor: 500 nM mouse GTSF1;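 note: 1 nM active piRISC with 0.1 nM target library at 33 °C single turnover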
How it was run: (§1)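 Active affinity-purified piRISC carrying one synthetic guide (1 nM) was mixed with a transcribed, DNA-blocked target RNA library […] in HEPES–potassium acetate buffer at 33 °C for 0–8 or 0–960 min, with or without 500 nM GTSF1 partner protein. Uncleaved targets were then sequenced and normalised to depth and to weakly complementary targets. Three trials were pooled, and k3 was capped at 0.0001 min^-1. A burst-and-steady-state fit was applied to obtain the pre-steady-state cleavage rate.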

[2] = test system: EfPiwi piRISC loaded with piRNA #1 (26 nt); experiment: pre-steady-state target cleavage rate (min^-1); guide: piRNA #1 5'p-UGAGGUAGUAGGUUGUAUAGUAUCCA; MIWI and MILI are mouse PIWI proteins and EfPiwi is from a freshwater sponge; tags in brackets are library labels; higher = faster piRNA-guided slicing of the target; settings: auxiliary factor: 500 nM Ephydatia muelleri Gtsf1
How it was run: as §1

Sequence | pre-steady-state target cleavage rate [1] | pre-steady-state target cleavage rate [2]
GGAGACCUAACUAUACAACCUUCUACGUCA | 0.00093 ± 0.016 | 0.00333 ± 0.0039
GGAGACCUAUGAUUACAACCUACUACCCCA | 0.00393 ± 0.004 | 0.00268 ± 0.0044
GGAGAGGAUACUAUAGAACCUAGUACCUCA | 0.000843 ± 0.0064 | 0.00135 ± 0.0026
GGAGACCAUACUUUACAUCCUACUACCUCA | 0.296 ± 0.029 | 0.00254 ± 0.0036
GGAGACCAUACUAUACAAGCUACUACCUCA | 0.253 ± 0.02 | 0.00377 ± 0.0015
GGAGACCUAUGUAUACAACAUACUACCUCA | 0.0179 ± 0.0028 | 0.0022 ± 0.0033
GGAGACCUAUGAUAAGAUCCUACUACCUCA | 0.000194 ± 0.013 | 0.000331 ± 0.0063
GGAGACCUAACUUUACAACCUUCUACCUCA | 0.00268 ± 0.0067 | 0.000806 ± 0.0084
GGAGACGAUACUAUUCAACGUACUACCUCA | 0.0257 ± 0.0034 | 0.00355 ± 0.0011
GGAGAGGAUACUAUAAACCUACUACCUCA | 0.0203 ± 0.0036 | 0.0039 ± 0.0043
GGAGACCUAUGAUAUGUACCUACUACCUCCA | 0.000124 ± 0.018 | 0.000193 ± 0.029
GGAGACCUAUCUAUACAAGCUACUACCUCA | 0.193 ± 0.017 | 0.00207 ± 0.0023
GGAGACCUAACUAUAAAACCUACUACCUCA | 0.0772 ± 0.013 | 0.000796 ± 0.0089
GGAGACCAUACUAUACAACCUACAUACCUCA | 0.146 ± 0.018 | 0.00306 ± 0.0029
GGAGACCUAACUAUACAACGUACUACCUCA | 0.0137 ± 0.0057 | 0.00454 ± 0.0022
GGAGACCUAUCUAUACAACCUAGAUCCUCA | 0.0047 ± 0.0021 | 0.00111 ± 0.0067
GGAGACCUAACCUAUACAACCUACUACCUCA | 0.107 ± 0.056 | 0.0868 ± 0.028
GGAGACGAUUCUAAACAACCUACUACCUCA | 0.168 ± 0.012 | 0.00926 ± 0.0045
GGAGACCUAACUAUACAACCUUGAUGGAGA [g10:g21:cont:t1A] | 0.000106 ± 0.05 | 0.000534 ± 0.0079
GGAGAGGAUACUAUAUCAACCUACUACCUCA | 0.107 ± 0.0098 | 0.0145 ± 0.0066
GGAGACCAUACUAUAGAACCUUCUACCUCA | 0.00154 ± 0.0043 | 0.00163 ± 0.0039
GGAGACCAUACUAUACAACCUACAUGCUCA | 0.134 ± 0.028 | 0.00144 ± 0.0044
GGAGACCUAACUAAACAACCUACUACCUGA | 0.0558 ± 0.021 | 0.00144 ± 0.0053

Single records, as listed above.
GGAGACCUAUCUAUACAACCUAGAUCCUCA in the list: pre-steady-state target cleavage rate [1]: 0.0047 ± 0.0021; pre-steady-state target cleavage rate [2]: 0.00111 ± 0.0067
GGAGACCAUACUAUAGAACCUUCUACCUCA in the list: pre-steady-state target cleavage rate [1]: 0.00154 ± 0.0043; pre-steady-state target cleavage rate [2]: 0.00163 ± 0.0039
GGAGACCUAACUAUACAACGUACUACCUCA in the list: pre-steady-state target cleavage rate [1]: 0.0137 ± 0.0057; pre-steady-state target cleavage rate [2]: 0.00454 ± 0.0022

The results go on.

Sequence | pre-steady-state target cleavage rate [1] | pre-steady-state target cleavage rate [2]
GGAGACGAUACUAUACAACCAUGUACCUCA | 0.00226 ± 0.0027 | 0.00168 ± 0.0029
GGAGACGAUACAAUACAACCUACUAGCUCA | 0.137 ± 0.023 | 0.00109 ± 0.0026
GGAGACCUAUCUAUACUAGCUACUACCUCA | 0.0865 ± 0.011 | 0.000542 ± 0.0051
GGAGACGAUACUAUACAACCUUGUACCUCA | 0.00274 ± 0.0031 | 0.00308 ± 0.002
GGAGACGAUACUAAACAACCUACUACCACA | 0.214 ± 0.019 | 0.0014 ± 0.0031
GGAGACGAUACUUUACAACCUUCUACCUCA | 0.00805 ± 0.0018 | 0.00188 ± 0.0031
GGAGACCAUACUAUUCAACCUUCUACCUCA | 0.00695 ± 0.0026 | 0.00206 ± 0.004
GGAGACCUAACUAUACAACCUUCAACCUCA | 0.00258 ± 0.005 | 0.000905 ± 0.0071
GGAGACCUAUGAUAUGUUGCUAUUACCUCA | 0.000123 ± 0.021 | 0.000842 ± 0.0073
GGAGACCUUACUAUUCAACCUAGUACCUCA | 0.0486 ± 0.011 | 0.00306 ± 0.0039
GGAGACCUUACUAUACAACCUACAUACCUCA | 0.157 ± 0.011 | 0.00229 ± 0.0053
GGAGACCUAACAAUACAACCUUCUACCUCA | 0.00457 ± 0.0048 | 0.00277 ± 0.0041
GGAGUGGAUACUAUACAACCUACUUGGAGA [g7:g26:cont:t1A] | 0.000226 ± 0.013 | 0.00179 ± 0.002
GGAGUGGAUACUAACAACCUACUACCUCA | 0.183 ± 0.011 | 0.00566 ± 0.0038
GGAGACCUUUCUAUACAACCUACUUCCUCA | 0.0321 ± 0.0062 | 0.00184 ± 0.0046
GGAGACGAUACUAUACAACGUACUACGUCA | 0.00557 ± 0.0029 | 0.00379 ± 0.0014
GGAGACCUAUCUAUAGAAGCUACUACCUCA | 0.143 ± 0.019 | 0.000289 ± 0.0074
GGAGACGAUACUAUACAACCUACUUGGUCA | 0.00122 ± 0.0069 | 0.00312 ± 0.0021
GGAGUCGAUACUAUACAACCUAGUACCUCA | 0.0166 ± 0.0031 | 0.00334 ± 0.0014
GGAGAGGAUAGUAUAGAACCUACUACCUCA | 0.0708 ± 0.012 | 0.00124 ± 0.0042
GGAGACCUAACUAUACAUCCUACAACCUCA | 0.246 ± 0.033 | 0.00371 ± 0.0038
GGAGACCUAACUAUACGAACCUACUACCUCA | 0.000208 ± 0.049 | 0.00335 ± 0.005
GGAGACCUAUGUAUACAACCUAGAUGGAGA [g9:g19:cont:t1A] | 0.000119 ± 0.018 | 0.000696 ± 0.0082

Sequence | pre-steady-state target cleavage rate [1] | pre-steady-state target cleavage rate [2]
GGAGACCUAUCUAUACAACCUUCUAGCUCA | 0.00247 ± 0.0038 | 0.000342 ± 0.0085
GGAGACCUAUGAUAUGUUCCCUACUACCUCA | 0.000289 ± 0.0085 | 0.000233 ± 0.0084
GGAGACGAUACUAUACAUCCUACUACCUCA | 0.289 ± 0.024 | 0.00772 ± 0.0032
GGAGACCUAUGUAUACUACCUACUACCUCA | 0.0517 ± 0.008 | 0.00132 ± 0.0032
GGAGACCUAUGAUAACUAGCUACUACCUCA | 0.00033 ± 0.01 | 0.000345 ± 0.01
GGAGACCAUACUAUACAAGCUUCUACCUCA | 0.036 ± 0.007 | 0.00306 ± 0.0039
GGAGACGAUACUAUACAACCUACAUGGAGA [g8:g24:cont:t1A] | 0.00182 ± 0.0043 | 0.00239 ± 0.0034
GGAGACCUAUGAUUAGAACCUACUACCUGA | 0.000162 ± 0.019 | 0.000537 ± 0.01
GGAGACCUAACUAUACAACCAACUAGCUCA | 0.00115 ± 0.011 | 0.00159 ± 0.0055
GGAGACGAUACUAUUGAACCUACUACCUCA | 0.157 ± 0.016 | 0.00145 ± 0.0035
GGAGACGAUACUAUACAAGCUACUACCUCA | 0.269 ± 0.016 | 0.00854 ± 0.0028
GGAGACCUAUGAUUACUUGCUACUACCUCA | 0.000215 ± 0.015 | 0.000758 ± 0.0071
GGAGACCAUAGUAUACAACCUACAACCUCA | 0.129 ± 0.017 | 0.00172 ± 0.0038
GGAGACCUAUGAUAUGAAGCUACAACCUCA | 0.000346 ± 0.013 | 0.000329 ± 0.013
GGAGACCUAUGAUAUCAACCUACUGCCUCA | 0.00191 ± 0.0045 | 0.000644 ± 0.0094
GGAGACCUUACUAUACAACGAUCUACCUCA | 0.000121 ± 0.032 | 0.000289 ± 0.018
GGAGACCUAUGUUUACAACCUACUUCCUCA | 0.0114 ± 0.0056 | 0.000483 ± 0.0071
GGAGACCUAACUAUACAACCUACAACGUCA | 0.00458 ± 0.0063 | 0.000862 ± 0.0091
GGAGACCAUACUAUACAACCAAGUACCUCA | 0.00242 ± 0.0031 | 0.00273 ± 0.0056
GGAGACGAUACUAUACAACCUACUAGGUCA | 0.00206 ± 0.004 | 0.0052 ± 0.002
GGAGACCAUACUAUACAACCAACAACCUCA | 0.00287 ± 0.0039 | 0.000766 ± 0.0089
GGAGUGGAUACUAUACAUCGUACUACCUCA | 0.0624 ± 0.0061 | 0.0051 ± 0.0023
